Experimental data from the supplement of paper PMC10338343.
± gives the standard deviation. This is a selection; strong and weak results do not stand in their true shares. Many of these values have a large error.

Assays:
[1] = system: MILI (PIWIL2) piRISC loaded with L1MC piRNA (26 nt); assay: pre-steady-state target cleavage rate (min^-1); MIWI and MILI are mouse PIWI proteins and EfPiwi is from a freshwater sponge; tags in brackets are library labels; higher = faster piRNA-guided slicing of the target; conditions: guide: L1MC piRNA 5'p-UAACUAAAUACUAUGCAAGCUGUAGG
In short: (§1)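 Using HEPES–potassium acetate buffer at 33 °C, 1 nM active affinity-purified piRISC with a single synthetic guide was mixed with 0.1 nM transcribed, DNA-blocked target RNA library for 0–8 or 0–960 min, with or without 500 nM GTSF1 partner protein. Uncleaved targets were sequenced and normalised to depth and to weakly complementary targets, and three trials were pooled with k3 capped at 0.0001 min^-1. A burst-and-steady-state fit gave the pre-steady-state cleavage rate.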

[2] = system: MIWI (PIWIL1) piRISC loaded with L1MC piRNA (30 nt); assay: as above; conditions: guide: L1MC piRNA 5'p-UAACUAAAUACUAUGCAAGCUGUAGGUCCU
In short: as §1

[3] = auxiliary factor: 500 nM mouse GTSF1
[4] = auxiliary factor: none (no GTSF1)

Sequence	pre-steady-state target cleavage rate [1, 3]	pre-steady-state target cleavage rate [1, 4]	pre-steady-state target cleavage rate [2, 4]	pre-steady-state target cleavage rate [2, 3]
UCCUGGAUGUCGAACGUAAGUAUUUUGUAA	0.000107 ± 0.05			
UCCUGGAUGUCGAACGUUAGUAUUAGUUA		0.000167 ± 0.021		
UCCUGGAUGUCGAUCGUUAGUAUUUAGUUA		0.000644 ± 0.0069		
UCCUGCUACAGCUUGCAUAGUAUUUAAGUUA	0.365 ± 0.043			
UCCUGGAUGUCGAACGUAAGUAUAAAGUUA	0.00018 ± 0.028			
UCCUGGUACAGCUUGGAUAGUAUUUAGUAA		0.00278 ± 0.003		
UCCUGGAUGUGCUUGCAUUGUAUUUACUUA		0.00177 ± 0.0044		
UCCUGCUACAGCUUGCAUAGUAUUGAGUUA		0.00178 ± 0.0041		
UCCUGGAUGUCGAAGCAUAGUAUUAUGUUA		0.00101 ± 0.0067		
UCCUCCUACUGCUUGCAUAGUAUUUAGUAA		0.00235 ± 0.0025		
UCCUGGAUGUCGAACGUAUGUAUUUAGUA		< 0.0001		
UCCUGGAUGUCGAACGUUAGUUUUUACUUA	0.000148 ± 0.039			
UCCUGGAUGUGCUUGCAUAAUAUUUAGUUA		0.00283 ± 0.0038		
UCCUGCUACAGCUUGCAUACUAUUUUGUUA		0.00139 ± 0.0046		
UCCUGGAUGUCGAACGUAAGUAUUUAGUGUA		0.000183 ± 0.033		
UCCUGCUACAGCUUGCAUUGUAUUUAGAUA		0.00206 ± 0.0031		
UCCUGGAUGUCGAACGUAUGUUUUUAGUAA		0.000191 ± 0.022		
UCCUGCUACAGCUUGCAUAGUAUUUCGUUA		0.00112 ± 0.0051		
UCCUGGUACAGCUUGCGAUAGUAUUUAGUUA		0.00111 ± 0.0067		
UCCUCGAUCAGCUUGCAUAGUAUUUUCAAA		0.00151 ± 0.0034		
UCCUGGAUGUGCUUGCAUAGUAUUUAGUAA	0.246 ± 0.031	0.00665 ± 0.0025		
UCCUGGAUGUCGAAGCAUAGUAUUUACAUA	0.00213 ± 0.0047	0.000397 ± 0.013	0.000658 ± 0.0081	

An excerpt taken from the entries so far, for reference:
Sequence	pre-steady-state target cleavage rate [1, 3]	pre-steady-state target cleavage rate [1, 4]	pre-steady-state target cleavage rate [2, 4]	pre-steady-state target cleavage rate [2, 3]
UCCUGGAUGUCGAACGUUAGUAUUAGUUA		0.000167 ± 0.021		
UCCUGGAUGUCGAUCGUUAGUAUUUAGUUA		0.000644 ± 0.0069		
UCCUGCUACAGCUUGCAUAGUAUUUAAGUUA	0.365 ± 0.043			

Continued.

Sequence	pre-steady-state target cleavage rate [1, 3]	pre-steady-state target cleavage rate [1, 4]	pre-steady-state target cleavage rate [2, 4]	pre-steady-state target cleavage rate [2, 3]
UCCUCCUACAGCUUGCAUAGAUAUUAGUAA	0.015 ± 0.007	0.000681 ± 0.0085	0.000724 ± 0.0093	
UCCUGGAUGAGCUUGCAAUCUAUUUAGUUA	0.00333 ± 0.0036	0.00124 ± 0.0034	0.000723 ± 0.0043	
UCCUGGAUGUCGAUGCAUUAGUAUUUAGUUA	0.00122 ± 0.0086	0.000909 ± 0.006	0.000773 ± 0.007	
UCCUCCUACAGCAUGCAUAGUAAUUAGUUA	0.251 ± 0.024	0.00544 ± 0.0019		
UCCUGCUACAGCUUGCAAUGUAUUUACAAA	0.0477 ± 0.014	0.00108 ± 0.0057	0.000989 ± 0.0076	
UCCUCCUAGAGCUUGGAUAGUAUUUAGUUA	0.217 ± 0.013	0.00594 ± 0.0019		
UCCUGGAUGUGCUUGCAUAGUAUUUAGCUA	0.00234 ± 0.0063	0.000401 ± 0.016		
UCCUGGAUGUGCUUGCAUAGUAUUAUCAAA	0.00236 ± 0.0052	0.000439 ± 0.011		
UCCUCCUACAGCUUGGAUAGUAUUUAGUUA	0.294 ± 0.017	0.0109 ± 0.003		
UCCUCCUACAGCUUGCAUUAGUAUUUAGUUA	0.0229 ± 0.0088	0.00103 ± 0.0052	0.000714 ± 0.0086	
UCCUGGAUGUCGUUGCAUAGGAUUUAGUUA	0.00141 ± 0.0058	0.000965 ± 0.0068	0.000897 ± 0.0086	
UCCUGGAUGAGCUUGCAUCAGUAUUUAGUUA	0.00196 ± 0.0062	0.000735 ± 0.009	0.000843 ± 0.0069	
UCCUGGAUGUCGAUGCUAAGUAUUUAGUUA	0.000987 ± 0.0085	0.000421 ± 0.011	0.000197 ± 0.013	
UCCUCCUACAGCUUGCAUACAUUUUAGUAA	0.00322 ± 0.0047	0.000927 ± 0.0056	0.000819 ± 0.0089	
UCCUGGAUGUCGAAGCAUAGUAUAUAGUUA	0.0508 ± 0.015	0.00342 ± 0.0022	0.00066 ± 0.0091	
UCCUGCUACAGCUUGCAUUGUAUUAAGUUA	0.215 ± 0.03	0.00215 ± 0.0038		
UCCUGGAUGUCGAACCAUAGUGAUUUAGUUA	0.000104 ± 0.025	0.000239 ± 0.017	0.000456 ± 0.014	
UCCUGGAUGUCGUUGCAGUAGUAUUUAGUUA	0.000701 ± 0.013	0.000784 ± 0.011	0.000792 ± 0.01	
UCCUGGAUGUCGAUGCUUUGUAUUUAGUUA	0.000571 ± 0.013	0.000368 ± 0.013	0.000645 ± 0.0099	
UCCUGGAUGUGCGUUGCAUAGUAUUUAGUUA	0.145 ± 0.016	0.00925 ± 0.0032		
UCCUGGAUGUCGUUGCAUGGUAUUUAGUUA	0.0354 ± 0.01	0.00854 ± 0.0034	0.00222 ± 0.0051	
UCCUGGAUGUCGAAGCAUAGUGAUUUAGUUA	0.00304 ± 0.0039	0.00124 ± 0.005	0.000741 ± 0.0086	

Sequence	pre-steady-state target cleavage rate [1, 3]	pre-steady-state target cleavage rate [1, 4]	pre-steady-state target cleavage rate [2, 4]	pre-steady-state target cleavage rate [2, 3]
UCCUGGAUGUCGAACGUAAGUAUUUUCAUA	0.000234 ± 0.035	0.000305 ± 0.014		0.000233 ± 0.038
UCCUCCUACAGCGUGCAUAGUAUUUAGUUA	0.309 ± 0.021	0.00999 ± 0.003		
UCCUGGAACAGCUUGCUAUGUAUUUUCAAA	0.00361 ± 0.0044	0.000565 ± 0.009	0.000522 ± 0.0095	
UCCUCCUACAGCUUGCAUAGUAUAUUGUUA	0.128 ± 0.019	0.00269 ± 0.0025		
UCCUGGUUCAGCUUGCAUAGUAUUUUGUUA	0.16 ± 0.03	0.00444 ± 0.0036		
UCCUCCUACAGCUUGCAAUAGUAUUUAGUUA	0.0415 ± 0.01	0.00198 ± 0.0034	0.00117 ± 0.0059	
UCCUGGAACACCAUGCAUAGUAUUUAGUUA	0.163 ± 0.018	0.0028 ± 0.0033	0.00266 ± 0.0033	
UCCUGGAUGUCGAACCAUGGUAUUUAGUUA	0.00112 ± 0.0065	0.000668 ± 0.0074		0.000264 ± 0.0093
UCCUGGAUCAGCUUGCUUAGUAUUUAGUUA	0.248 ± 0.019	0.0092 ± 0.0031		
UCCUGGAUGAGCUUGCAGAGUAUUUAGUUA	0.0869 ± 0.0095	0.00792 ± 0.0024		
UCCUCCUACACCUUGCAUAGUAUUUACUUA	0.128 ± 0.038	0.00167 ± 0.0044		
UCCUGGAUGUCGAACGUUACGUAUUUAGUUA	0.000278 ± 0.02	0.000179 ± 0.029	0.000238 ± 0.028	
UCCUGGAUGUCGAAGCAUUAGUAUUUAGUUA	0.0011 ± 0.0075	0.000238 ± 0.01	0.000593 ± 0.0097	
UCCUGGAUGUCGUUGCAUUGUAUUUUGUUA	0.00231 ± 0.0068	0.000796 ± 0.0091		
UCCUGGAACAGCUUGCAUAGUAUUAUGAAA	0.0563 ± 0.02	0.00111 ± 0.0049	0.00235 ± 0.0035	
UCCUGCUACAGCUAGCAUAGUAUUUAGAUA	0.151 ± 0.028	0.00126 ± 0.0066	0.00266 ± 0.0028	
UCCUGGAUGUCGAACCAUAGUAUUUAGAUA	0.000279 ± 0.021	0.000189 ± 0.018	0.000157 ± 0.018	0.000263 ± 0.021
UCCUGGAUGUCGUUGCUUACUAUUUAGUUA	0.00175 ± 0.0079	0.000864 ± 0.0077	0.000552 ± 0.015	0.000453 ± 0.026
UCCUGGAUGUCGUUGCAUUGUUUUUAGUUA	0.0014 ± 0.01	0.00305 ± 0.0041	0.000342 ± 0.022	0.000128 ± 0.09
UCCUGGAUGUCGAUGCAUUGUUUUUAGUUA	0.000564 ± 0.013	0.00073 ± 0.009	0.000432 ± 0.013	0.000223 ± 0.037
UCCUGGAUGUCGAACGUUACAUUUUAGUUA	0.000162 ± 0.045	0.000325 ± 0.014	0.000377 ± 0.015	
